Measured values: article PMC11920102
Results are given in words; binding and its absence hold for the method and conditions named. Some entries that bind do so weakly or less than the wild type. Blank lines part the entries; values can stand above or below the molecule they belong to.

Chains of the proteins cited; added tags and fusions are not shown. Lines headed by an entry give the natural chain unless they say otherwise; changes in a name come on top. A line that says so, or that is headed by a name, gives the form on record, which may keep a tag or linker.
Drp1 (Homo sapiens, Isoform 3), fluorescently tagged (O00429-4, form named): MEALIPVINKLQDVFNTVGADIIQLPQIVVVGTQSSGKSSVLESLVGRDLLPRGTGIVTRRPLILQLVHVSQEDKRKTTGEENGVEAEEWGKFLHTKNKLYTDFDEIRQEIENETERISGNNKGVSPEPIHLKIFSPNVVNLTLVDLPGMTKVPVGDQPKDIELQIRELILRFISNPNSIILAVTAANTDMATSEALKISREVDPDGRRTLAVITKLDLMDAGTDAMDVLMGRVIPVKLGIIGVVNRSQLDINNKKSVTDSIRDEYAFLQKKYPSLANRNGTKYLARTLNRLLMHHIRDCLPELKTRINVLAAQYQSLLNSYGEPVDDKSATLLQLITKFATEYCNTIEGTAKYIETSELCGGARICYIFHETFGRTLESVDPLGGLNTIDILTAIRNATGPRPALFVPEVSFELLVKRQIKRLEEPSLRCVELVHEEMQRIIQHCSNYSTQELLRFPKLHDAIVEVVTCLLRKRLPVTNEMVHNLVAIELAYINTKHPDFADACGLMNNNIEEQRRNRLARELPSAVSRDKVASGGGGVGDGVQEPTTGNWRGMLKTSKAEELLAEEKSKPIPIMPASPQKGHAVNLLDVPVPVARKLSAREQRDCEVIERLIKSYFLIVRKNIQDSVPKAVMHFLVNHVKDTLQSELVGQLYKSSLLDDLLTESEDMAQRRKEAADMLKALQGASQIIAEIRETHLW

Assays:
Assay in all cases: rapamycin-induced rerouting to the OMM (live-cell confocal imaging); FKBP-tagged bait rerouted to the OMM-targeted FRB with rapamycin in live cells; relocalisation of the fluorescently tagged prey followed in real time
[1] = biological target: T1, FKBP-EndoB1^CT (Residues 269–365) (Homo sapiens) (UniProt Q9Y371)
T1 sequence: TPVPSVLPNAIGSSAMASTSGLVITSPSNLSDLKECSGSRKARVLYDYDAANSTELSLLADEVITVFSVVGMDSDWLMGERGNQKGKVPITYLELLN

[2] = biological target: T2, EndoB1 (Full-Length, Residues 1–365) (Homo sapiens), Q9Y371; details: remark: other sources report otherwise
T2 chain: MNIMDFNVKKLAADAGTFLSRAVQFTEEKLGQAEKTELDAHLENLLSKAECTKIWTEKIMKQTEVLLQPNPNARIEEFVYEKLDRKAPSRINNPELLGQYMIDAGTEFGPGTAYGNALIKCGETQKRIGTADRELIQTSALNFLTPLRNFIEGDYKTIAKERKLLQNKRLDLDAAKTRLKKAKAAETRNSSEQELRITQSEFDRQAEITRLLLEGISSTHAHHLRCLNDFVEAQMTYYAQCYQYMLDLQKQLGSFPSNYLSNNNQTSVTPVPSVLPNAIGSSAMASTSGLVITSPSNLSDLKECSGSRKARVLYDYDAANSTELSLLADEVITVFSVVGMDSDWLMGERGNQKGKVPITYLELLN

[3] = biological target: T3, EndoB1^L227D (Homo sapiens) (UniProt Q9Y371)
T3 sequence: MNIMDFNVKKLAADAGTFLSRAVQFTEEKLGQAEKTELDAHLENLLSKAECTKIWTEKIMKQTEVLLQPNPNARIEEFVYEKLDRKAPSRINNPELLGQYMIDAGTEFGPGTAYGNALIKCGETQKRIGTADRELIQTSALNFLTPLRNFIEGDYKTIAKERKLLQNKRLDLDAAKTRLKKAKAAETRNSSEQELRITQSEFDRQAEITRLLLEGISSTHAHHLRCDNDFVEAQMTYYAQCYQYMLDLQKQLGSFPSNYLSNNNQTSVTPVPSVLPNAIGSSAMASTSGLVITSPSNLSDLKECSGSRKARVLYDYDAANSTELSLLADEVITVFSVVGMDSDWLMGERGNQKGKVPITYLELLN

[4] = biological target: T4, EndoB1 (Full-Length, Residues 1–365) (Homo sapiens) (UniProt Q9Y371)
T4 sequence: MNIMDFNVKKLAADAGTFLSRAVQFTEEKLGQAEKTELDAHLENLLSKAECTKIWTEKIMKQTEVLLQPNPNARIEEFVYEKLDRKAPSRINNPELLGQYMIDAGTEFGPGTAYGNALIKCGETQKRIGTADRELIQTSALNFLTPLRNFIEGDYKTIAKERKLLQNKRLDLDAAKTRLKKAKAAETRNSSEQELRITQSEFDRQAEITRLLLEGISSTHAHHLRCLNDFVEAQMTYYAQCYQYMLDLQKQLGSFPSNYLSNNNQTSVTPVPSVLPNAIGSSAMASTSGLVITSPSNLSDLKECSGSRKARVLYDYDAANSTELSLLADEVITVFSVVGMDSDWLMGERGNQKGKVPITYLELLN

- binding [1]: no binding
Molecule: Drp1 (Homo sapiens, Isoform 3), fluorescently tagged (from UniProt O00429-4 1-699)

- binding [2]: binds
B1: EndoB1 (Full-Length, Residues 1–365), Q9Y371 1-365 (protein)
chain: MNIMDFNVKKLAADAGTFLSRAVQFTEEKLGQAEKTELDAHLENLLSKAECTKIWTEKIMKQTEVLLQPNPNARIEEFVYEKLDRKAPSRINNPELLGQYMIDAGTEFGPGTAYGNALIKCGETQKRIGTADRELIQTSALNFLTPLRNFIEGDYKTIAKERKLLQNKRLDLDAAKTRLKKAKAAETRNSSEQELRITQSEFDRQAEITRLLLEGISSTHAHHLRCLNDFVEAQMTYYAQCYQYMLDLQKQLGSFPSNYLSNNNQTSVTPVPSVLPNAIGSSAMASTSGLVITSPSNLSDLKECSGSRKARVLYDYDAANSTELSLLADEVITVFSVVGMDSDWLMGERGNQKGKVPITYLELLN

- binding [3]: no binding
B2: EndoB1 (Full-Length, Residues 1–365) (protein, UniProt Q9Y371 1-365)
chain: MNIMDFNVKKLAADAGTFLSRAVQFTEEKLGQAEKTELDAHLENLLSKAECTKIWTEKIMKQTEVLLQPNPNARIEEFVYEKLDRKAPSRINNPELLGQYMIDAGTEFGPGTAYGNALIKCGETQKRIGTADRELIQTSALNFLTPLRNFIEGDYKTIAKERKLLQNKRLDLDAAKTRLKKAKAAETRNSSEQELRITQSEFDRQAEITRLLLEGISSTHAHHLRCLNDFVEAQMTYYAQCYQYMLDLQKQLGSFPSNYLSNNNQTSVTPVPSVLPNAIGSSAMASTSGLVITSPSNLSDLKECSGSRKARVLYDYDAANSTELSLLADEVITVFSVVGMDSDWLMGERGNQKGKVPITYLELLN

- binding [4]: no binding
B3: EndoB1^L227D (protein, UniProt Q9Y371 1-365)
chain: MNIMDFNVKKLAADAGTFLSRAVQFTEEKLGQAEKTELDAHLENLLSKAECTKIWTEKIMKQTEVLLQPNPNARIEEFVYEKLDRKAPSRINNPELLGQYMIDAGTEFGPGTAYGNALIKCGETQKRIGTADRELIQTSALNFLTPLRNFIEGDYKTIAKERKLLQNKRLDLDAAKTRLKKAKAAETRNSSEQELRITQSEFDRQAEITRLLLEGISSTHAHHLRCDNDFVEAQMTYYAQCYQYMLDLQKQLGSFPSNYLSNNNQTSVTPVPSVLPNAIGSSAMASTSGLVITSPSNLSDLKECSGSRKARVLYDYDAANSTELSLLADEVITVFSVVGMDSDWLMGERGNQKGKVPITYLELLN
